Test results from patent US20230073274A1 (NOVELMED THERAPEUTICS, published 2023).
Substitutions are numbered along the chain they refer to. No constants are given. Whether binding was seen depends on the method and setting. Some binding calls cover weakened binding; strength is not graded here. One block for each binder: values may come before it.

The chains behind the UniProt entries cited, without tags or fusion partners. Residues count along the entry.
UniProt P27918, residues 28-469: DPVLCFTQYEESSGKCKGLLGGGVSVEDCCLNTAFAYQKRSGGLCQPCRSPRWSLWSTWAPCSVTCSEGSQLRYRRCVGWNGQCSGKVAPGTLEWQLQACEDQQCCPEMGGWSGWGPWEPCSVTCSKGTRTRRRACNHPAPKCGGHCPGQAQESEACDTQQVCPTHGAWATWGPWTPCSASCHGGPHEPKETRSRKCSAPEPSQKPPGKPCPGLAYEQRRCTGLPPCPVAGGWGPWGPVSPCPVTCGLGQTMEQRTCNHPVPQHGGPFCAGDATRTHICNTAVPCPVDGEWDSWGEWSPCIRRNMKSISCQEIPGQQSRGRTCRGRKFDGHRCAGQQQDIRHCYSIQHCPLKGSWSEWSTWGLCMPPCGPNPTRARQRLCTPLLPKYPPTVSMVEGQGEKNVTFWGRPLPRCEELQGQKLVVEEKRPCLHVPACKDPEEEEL

Key:
human properdin [1] = biological target: T1, human properdin (human, UniProt P27918 28-469); assay: ELISA, human properdin coated on plate (FIG. 20)
human properdin [2] = biological target: T1, human properdin; assay: ELISA, human properdin coated on the plate, OD 450 nm
human properdin [3] = biological target: T1, human properdin; assay: properdin binding assay (FIG. 36)
human properdin [4] = biological target: T1, human properdin; assay: ELISA, properdin coated on the plate, OD 450 nm
human properdin [5] = biological target: T1, human properdin; assay: ELISA on properdin (sheet title: Potency Binding; axes without labels)
human properdin [6] = biological target: T1, human properdin; assay: properdin binding assay, comparison of Fc regions (FIG. 40)
human properdin [7] = biological target: T1, human properdin; assay: properdin binding assay (FIG. 31)

B1: NMT15 (antibody, V domains shown)
VH: QVQLVQSAPEVAKPGTSVKMSCKASGYIFTNYPIHWVKQAPGQGLEWIGFIDPGGGYDEPDERFRDRATLTADKSTSTAYMELSSLRSEDTAIYYCARRGGGYYLDYWGQGTLVTVSS
VL: DIQMTQSPSSLSASLGDRVTITCRASQDISFFLNWYQQKPDGTVKLLIYYTSRYHSGVPSRFSGSGSGTDFTLTISSLQPEDFATYFCQHGNTLPWTFGQGTKLEIK
binding (human properdin [1]): binds
binding (human properdin [2]): binds

B4: NMT28 (antibody, V domains shown)
VH: EVQLVQSGAEVKKPGASVKVSCKASGYIFTNYPIHWVRQAPGQGLEWMGFIDPGGGYDEPDERFRDRVTMTADTSTSTAYMELSSLRSEDTAVYYCARRGGGYYLDYWGQGTLVTVSS
VL: B1 VL with L15V, D41G, G42K, T43A, V44P, F87Y, N92Q, L104V
binding (human properdin [7]): binds
binding (human properdin [4]): binds
binding (human properdin [5]): binds

Now from value to binder:

binding (human properdin [3]): binds
binding (human properdin [4]): binds
binding (human properdin [5]): binds
binding (human properdin [6]): binds
B2: NMT28-100 (antibody, V domains shown)
VH: B4 VH
VL: B1 VL with L15V, D41G, G42K, T43A, V44P, F87Y, N92Q, L104V

binding (human properdin [3]): binds
binding (human properdin [4]): binds
binding (human properdin [5]): binds
binding (human properdin [6]): binds
B3: NMT28-101 (antibody, V domains shown)
VH: B4 VH
VL: B1 VL with L15V, D41G, G42K, T43A, V44P, F87Y, N92Q, L104V
